No constants are given. Whether binding was seen depends on the method and setting. Some binding calls cover weakened binding; strength is not graded here.
Target: T1, Nup85 (Xenopus laevis (endogenous in oocytes)) (UniProt Q68FJ0)
T1 sequence: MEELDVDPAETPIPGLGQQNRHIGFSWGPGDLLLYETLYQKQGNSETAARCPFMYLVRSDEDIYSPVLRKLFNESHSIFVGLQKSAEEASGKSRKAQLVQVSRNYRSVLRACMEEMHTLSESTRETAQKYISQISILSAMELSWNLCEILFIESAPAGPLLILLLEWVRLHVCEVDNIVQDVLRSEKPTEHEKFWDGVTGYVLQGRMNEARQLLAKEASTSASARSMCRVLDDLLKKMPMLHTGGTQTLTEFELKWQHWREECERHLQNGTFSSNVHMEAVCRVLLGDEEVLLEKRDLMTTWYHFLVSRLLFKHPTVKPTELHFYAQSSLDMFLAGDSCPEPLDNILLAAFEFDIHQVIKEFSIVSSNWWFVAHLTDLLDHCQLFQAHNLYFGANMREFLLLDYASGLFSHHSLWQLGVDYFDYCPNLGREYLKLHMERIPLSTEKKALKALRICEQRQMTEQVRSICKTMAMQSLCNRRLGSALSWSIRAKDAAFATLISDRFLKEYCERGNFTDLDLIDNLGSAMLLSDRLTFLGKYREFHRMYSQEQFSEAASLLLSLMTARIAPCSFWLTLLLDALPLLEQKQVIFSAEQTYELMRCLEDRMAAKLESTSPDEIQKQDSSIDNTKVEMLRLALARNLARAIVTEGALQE
Test: cryo-EM structure; nuclear ring (NR) subunit of NPCs in the X. laevis oocyte nuclear envelope spread on the grid in HEPES buffer (83 mmol/L KCl, 17 mmol/L NaCl, 10 mmol/L HEPES, pH 7.5), cross-linked with 0.15% glutaraldehyde; single particle analysis, maps at 8.1 Å (subunit), 7.8 Å (core), 8.6 Å (Nup133 region); AlphaFold2 models fitted by MDFF

Amino acid sequences for entries named in this document (tags omitted).
UniProt Q5U249: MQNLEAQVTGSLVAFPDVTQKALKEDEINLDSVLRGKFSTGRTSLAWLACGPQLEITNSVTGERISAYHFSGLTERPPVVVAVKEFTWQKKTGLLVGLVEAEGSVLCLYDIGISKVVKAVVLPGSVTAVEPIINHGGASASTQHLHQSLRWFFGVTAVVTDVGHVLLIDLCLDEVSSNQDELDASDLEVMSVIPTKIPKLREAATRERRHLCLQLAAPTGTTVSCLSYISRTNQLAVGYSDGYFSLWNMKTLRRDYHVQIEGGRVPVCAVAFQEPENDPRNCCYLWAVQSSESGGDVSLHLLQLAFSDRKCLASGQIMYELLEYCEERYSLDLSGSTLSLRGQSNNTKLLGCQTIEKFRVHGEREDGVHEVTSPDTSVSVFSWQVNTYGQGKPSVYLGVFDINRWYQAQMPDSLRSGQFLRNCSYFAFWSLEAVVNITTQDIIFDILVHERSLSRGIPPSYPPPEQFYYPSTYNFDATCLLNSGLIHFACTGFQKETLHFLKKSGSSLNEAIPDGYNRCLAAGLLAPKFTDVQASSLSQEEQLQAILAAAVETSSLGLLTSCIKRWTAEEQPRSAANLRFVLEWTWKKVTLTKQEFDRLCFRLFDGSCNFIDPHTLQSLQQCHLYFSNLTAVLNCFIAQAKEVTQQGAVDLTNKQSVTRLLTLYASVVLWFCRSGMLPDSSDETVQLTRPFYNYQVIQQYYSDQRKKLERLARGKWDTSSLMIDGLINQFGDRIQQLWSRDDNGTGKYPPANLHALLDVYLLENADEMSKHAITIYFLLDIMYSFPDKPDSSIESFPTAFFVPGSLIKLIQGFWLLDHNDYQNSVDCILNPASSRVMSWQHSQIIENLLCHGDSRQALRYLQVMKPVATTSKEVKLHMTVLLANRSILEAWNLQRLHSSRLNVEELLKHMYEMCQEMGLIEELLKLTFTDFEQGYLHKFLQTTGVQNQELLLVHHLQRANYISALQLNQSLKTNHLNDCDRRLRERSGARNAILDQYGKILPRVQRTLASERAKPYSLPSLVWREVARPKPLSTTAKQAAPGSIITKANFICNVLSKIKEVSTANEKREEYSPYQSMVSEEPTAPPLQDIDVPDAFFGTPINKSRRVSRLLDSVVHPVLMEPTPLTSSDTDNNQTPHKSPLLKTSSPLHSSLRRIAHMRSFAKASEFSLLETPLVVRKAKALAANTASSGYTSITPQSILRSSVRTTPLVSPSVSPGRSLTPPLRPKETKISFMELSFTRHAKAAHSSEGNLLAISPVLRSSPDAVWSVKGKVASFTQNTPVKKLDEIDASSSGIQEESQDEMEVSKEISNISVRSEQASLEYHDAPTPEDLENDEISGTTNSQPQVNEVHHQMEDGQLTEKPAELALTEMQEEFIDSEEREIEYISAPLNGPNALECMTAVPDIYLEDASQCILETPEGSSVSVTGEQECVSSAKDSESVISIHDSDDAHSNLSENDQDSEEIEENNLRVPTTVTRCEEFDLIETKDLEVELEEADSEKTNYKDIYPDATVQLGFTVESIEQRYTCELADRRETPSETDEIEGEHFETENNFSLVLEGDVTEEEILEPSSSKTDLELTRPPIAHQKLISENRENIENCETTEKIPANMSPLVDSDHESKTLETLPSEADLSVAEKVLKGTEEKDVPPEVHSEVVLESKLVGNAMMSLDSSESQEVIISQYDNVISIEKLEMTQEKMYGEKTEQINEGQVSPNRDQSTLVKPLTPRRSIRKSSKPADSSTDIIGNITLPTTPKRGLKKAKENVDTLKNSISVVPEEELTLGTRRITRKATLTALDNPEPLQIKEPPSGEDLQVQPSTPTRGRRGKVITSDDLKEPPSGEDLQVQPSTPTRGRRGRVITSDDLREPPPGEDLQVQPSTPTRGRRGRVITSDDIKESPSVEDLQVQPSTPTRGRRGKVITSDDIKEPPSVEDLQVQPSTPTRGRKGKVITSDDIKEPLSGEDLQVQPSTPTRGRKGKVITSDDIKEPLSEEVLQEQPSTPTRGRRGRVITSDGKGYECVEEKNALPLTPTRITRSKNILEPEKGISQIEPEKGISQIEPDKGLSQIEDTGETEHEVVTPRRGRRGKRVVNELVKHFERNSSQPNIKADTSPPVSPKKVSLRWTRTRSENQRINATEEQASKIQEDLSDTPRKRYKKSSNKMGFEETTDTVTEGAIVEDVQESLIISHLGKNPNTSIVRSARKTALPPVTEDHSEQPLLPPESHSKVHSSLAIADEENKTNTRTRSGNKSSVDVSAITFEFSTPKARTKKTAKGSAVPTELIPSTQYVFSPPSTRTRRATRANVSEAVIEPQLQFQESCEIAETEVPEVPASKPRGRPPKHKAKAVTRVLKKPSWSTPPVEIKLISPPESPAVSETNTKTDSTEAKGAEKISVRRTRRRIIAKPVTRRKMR

binding: binds
Substance: ELYS (embryonic large molecule derived from the yolk sac) (from UniProt Q5U249 1-2408)
